Our source for the binding values is doi:10.1101/2025.05.24.655882.

By UniProt entry, the sequences of proteins in these tests, tags left out. Where a name states a change or a piece, a line headed by the entry shows the natural chain unless it says otherwise.
UniProt P53855: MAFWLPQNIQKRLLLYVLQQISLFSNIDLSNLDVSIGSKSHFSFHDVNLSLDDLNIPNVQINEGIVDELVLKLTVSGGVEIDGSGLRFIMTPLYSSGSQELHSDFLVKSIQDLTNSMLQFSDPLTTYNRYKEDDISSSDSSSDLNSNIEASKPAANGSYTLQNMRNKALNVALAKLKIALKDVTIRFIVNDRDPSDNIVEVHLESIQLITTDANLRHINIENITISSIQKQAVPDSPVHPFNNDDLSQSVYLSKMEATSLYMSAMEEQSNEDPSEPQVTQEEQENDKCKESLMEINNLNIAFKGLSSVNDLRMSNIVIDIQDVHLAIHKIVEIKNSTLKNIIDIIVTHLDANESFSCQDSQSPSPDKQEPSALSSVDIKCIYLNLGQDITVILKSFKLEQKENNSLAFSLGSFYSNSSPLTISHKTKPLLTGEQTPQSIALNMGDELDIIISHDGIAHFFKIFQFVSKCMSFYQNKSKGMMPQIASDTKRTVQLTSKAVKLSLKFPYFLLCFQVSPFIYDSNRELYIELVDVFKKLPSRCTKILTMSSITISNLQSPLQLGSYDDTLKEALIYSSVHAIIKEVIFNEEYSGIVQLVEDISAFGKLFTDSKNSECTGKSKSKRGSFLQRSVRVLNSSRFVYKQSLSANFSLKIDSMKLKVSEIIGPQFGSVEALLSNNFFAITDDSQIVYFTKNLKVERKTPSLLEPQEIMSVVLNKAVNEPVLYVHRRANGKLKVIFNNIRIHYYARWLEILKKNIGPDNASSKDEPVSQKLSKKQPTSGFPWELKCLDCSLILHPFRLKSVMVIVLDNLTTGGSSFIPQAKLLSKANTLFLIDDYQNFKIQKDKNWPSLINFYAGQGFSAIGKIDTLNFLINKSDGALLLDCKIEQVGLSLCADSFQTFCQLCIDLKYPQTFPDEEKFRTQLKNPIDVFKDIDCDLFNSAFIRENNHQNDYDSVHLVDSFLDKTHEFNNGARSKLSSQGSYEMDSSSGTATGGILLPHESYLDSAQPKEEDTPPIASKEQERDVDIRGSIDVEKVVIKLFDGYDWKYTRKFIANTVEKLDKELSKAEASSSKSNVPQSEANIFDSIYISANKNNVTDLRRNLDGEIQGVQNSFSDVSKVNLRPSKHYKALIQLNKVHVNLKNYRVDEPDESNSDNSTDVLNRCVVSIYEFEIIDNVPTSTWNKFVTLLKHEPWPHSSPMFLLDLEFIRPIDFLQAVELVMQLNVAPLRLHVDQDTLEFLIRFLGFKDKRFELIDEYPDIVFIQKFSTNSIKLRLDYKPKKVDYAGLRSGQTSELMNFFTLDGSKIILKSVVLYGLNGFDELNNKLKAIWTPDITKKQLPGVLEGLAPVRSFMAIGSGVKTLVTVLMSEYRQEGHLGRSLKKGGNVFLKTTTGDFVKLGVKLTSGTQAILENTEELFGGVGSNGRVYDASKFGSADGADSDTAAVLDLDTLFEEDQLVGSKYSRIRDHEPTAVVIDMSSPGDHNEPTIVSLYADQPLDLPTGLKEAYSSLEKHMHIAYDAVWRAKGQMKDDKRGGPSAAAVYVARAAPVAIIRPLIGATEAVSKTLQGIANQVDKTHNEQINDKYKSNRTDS

What all share (test): co-IP
The target of assay [1] is Atg2^ΔARCH1 (–HA–EGFP) (S. cerevisiae) (UniProt P53855).
The target in assay [2] is Atg2^ΔARCH6 (–HA–EGFP) (S. cerevisiae) (UniProt P53855).
Assay [3] concerns the target Atg2^ΔARCH5 (–HA–EGFP) (S. cerevisiae) (UniProt P53855).

Results are given in words; binding and its absence hold for the method and conditions named. Binding seen in cells or lysates may run through a third protein. For some assays here: Binding calls can cover weak binding; strength is not graded here. Sequences can lack the tags named with a protein.

B1: Atg18 (co-precipitated with Atg2–HA–EGFP) (protein, UniProt P43601 1-500)
chain: MSDSSPTINFINFNQTGTCISLGTSKGFKIFNCEPFGKFYSEDSGGYAIVEMLFSTSLLALVGIGDQPALSPRRLRIINTKKHSIICEVTFPTSILSVKMNKSRLVVLLQEQIYIYDINTMRLLHTIETNPNPRGLMAMSPSVANSYLVYPSPPKVINSEIKAHATTNNITLSVGGNTETSFKRDQQDAGHSDISDLDQYSSFTKRDDADPTSSNGGNSSIIKNGDVIVFNLETLQPTMVIEAHKGEIAAMAISFDGTLMATASDKGTIIRVFDIETGDKIYQFRRGTYATRIYSISFSEDSQYLAVTGSSKTVHIFKLGHSMSNNKLDSDDSNMEEAAADDSSLDTTSIDALSDEENPTRLAREPYVDASRKTMGRMIRYSSQKLSRRAARTLGQIFPIKVTSLLESSRHFASLKLPVETNSHVMTISSIGSPIDIDTSEYPELFETGNSASTESYHEPVMKMVPIRVVSSDGYLYNFVMDPERGGDCLILSQYSILMD
As to B1, the binding result is recorded as “binds” in assay [1], “no binding” in assay [2] and “no binding” in assay [3].

B2: Atg9 (protein, UniProt Q12142 1-997)
chain: MERDEYQLPNSHGKNTFLSRIFGLQSDEVNPSLNSQEMSNFPLPDIERGSSLLHSTNDSREDVDENDLRVPESDQGTSTEEEDEVDEEQVQAYAPQISDGLDGDHQLNSVTSKENVLETEKSNLERLVEGSTDDSVPKVGQLSSEEEEDNEFINNDGFDDDTPLFQKSKIHEFSSKKSNTIEDGKRPLFFRHILQNNRPQRDTQKLFTSSNAIHHDKDKSANNGPRNINGNQKHGTKYFGSATQPRFTGSPLNNTNRFTKLFPLRKPNLLSNISVLNNTPEDRINTLSVKERALWKWANVENLDIFLQDVYNYYLGNGFYCIILEKILNICTLLFVVFVSTYMGHCVDYSKLPTSHRVSDIIIDKCYSNSITGFTKFFLWMFYFFVILKIVQLYFDVQKLSELQNFYKYLLNISDDELQTLPWQNVIQQLMYLKDQNAMTANVVEVKAKNRIDAHDVANRIMRRENYLIALYNSDILNLSLPIPLFRTNVLTKTLEWNINLCVMGFVFNESGFIKQSILKPSQREFTREELQKRFMLAGFLNIILAPFLVTYFVLLYFFRYFNEYKTSPGSIGARQYTPIAEWKFREYNELYHIFKKRISLSTTLANKYVDQFPKEKTNLFLKFVSFICGSFVAILAFLTVFDPENFLNFEITSDRSVIFYITILGAIWSVSRNTITQEYHVFDPEETLKELYEYTHYLPKEWEGRYHKEEIKLEFCKLYNLRIVILLRELTSLMITPFVLWFSLPSSAGRIVDFFRENSEYVDGLGYVCKYAMFNMKNIDGEDTHSMDEDSLTKKIAVNGSHTLNSKRRSKFTAEDHSDKDLANNKMLQSYVYFMDDYSNSENLTGKYQLPAKKGYPNNEGDSFLNNKYSWRKQFQPGQKPELFRIGKHALGPGHNISPAIYSTRNPGKNWDNNNNGDDIKNGTNNATAKNDDNNGNNDHEYVLTESFLDSGAFPNHDVIDHNKMLNSNYNGNGILNKGGVLGLVKEYYKKSDVGR
Take B2: the values for the binding entry in assay [1] and in assay [2] were “binds” and “no binding”, respectively.
